The assay deals with CD137 on CD8^+ ConA activated splenocytes / OT-1 CD8 T cells (UniProt P20334). Description: flow cytometry (mean fluorescence units) on CD8+ ConA activated splenocytes, Alexa 488 secondary. A general note: Flow cytometry measures light scatter and fluorescence of single cells or particles in a stream.

The chains behind the UniProt entries cited, without tags or fusion partners. Residues count along the entry.
UniProt P20334, residues 24-256: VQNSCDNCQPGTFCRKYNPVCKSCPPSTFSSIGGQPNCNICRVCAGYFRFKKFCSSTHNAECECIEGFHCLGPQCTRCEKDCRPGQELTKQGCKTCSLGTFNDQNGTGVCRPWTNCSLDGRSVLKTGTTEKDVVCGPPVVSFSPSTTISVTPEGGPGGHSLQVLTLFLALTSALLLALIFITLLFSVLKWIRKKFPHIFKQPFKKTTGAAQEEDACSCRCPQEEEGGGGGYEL

Here are results for one molecule from patent US20230295346A1.

Results are given in words; binding and its absence hold for the method and conditions named. Some results given as binding are weak or reduced against the parent protein; the word gives no strength.

B1: CD137 Ab proper (chimeric anti-CD137 antibody, rat variable regions, mouse IgG1 heavy chain constant region) (antibody, V domains shown)
VH: QVQLKEAGPGLVQPTQTLSLTCTVSGFSLTSDGVHWIRQPPGKGLEWMGIIYYDGGTDYNSAIKSRLSISRDTSKSQVFLKINSLQTDDTAMYYCARIHFDYWGQGVMVTVSS
VL: EIVLTQSPTTIAASPGEKVTITCRASSSVSYMYWYQQKSGASPKLWIYDTSKLASGVPNRFSGSGSGTSYSLAINTMETEDAATYYCQQWSSTPLTFGSGTKLEIKR
Take B1: the binding result was “binds”.
